PubChem BioAssay AID504786, Drosophila RNAi Screening Center – 2011

- Test: 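Knock-downs reducing HIF reporter induction by the iron chelator DFO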 (primary screen)
- System: Drosophila S2 cells with a stable HIF luciferase reporter
- Reagents: long dsRNA against Drosophila genes, about 0.2 µg dsRNA per well of a 384-well plate
- Time to read-out: three days of knock-down, then 20 h of DFO before reading
- Treatment: desferrioxamine (DFO) at 100 µM, an iron chelator that mimics hypoxia, for 20 h
- Measured: 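Firefly luciferase driven by the mouse ldh-a hypoxia-response element, measured after 20 h of 100 µM DFO; z-scores per plate, higher means more signal lost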
- Reading the numbers: z-score: higher = stronger loss of HIF reporter signal
The screen tested about 21,000 reagents; this is a random part of those with a known target gene and a result. 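Primary screen; positive scores mean lost reporter signal, so the sign may be inverted from the usual convention.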 Further read-outs or replicates are left out here. No sequences are given here.

The first 3 records, to show the layout:
| gene | dsRNA | z-score, replicate 1 | z-score, replicate 2 | z-score, replicate 3 |
| --- | --- | --- | --- | --- |
| CG42249 | DRSC19383 | -0.2 | -0.2 | – |
| CG42249 | DRSC19826 | -0.1 | -0.2 | – |
| PIG-U (Phosphatidylinositol glycan anchor biosynthesis class U) | DRSC02193 | -0.2 | -0.5 | – |

Results, from the first entry:
| gene | dsRNA | z-score, replicate 1 | z-score, replicate 2 | z-score, replicate 3 |
| --- | --- | --- | --- | --- |
| CG42249 | DRSC19383 | -0.2 | -0.2 | – |
| CG42249 | DRSC19826 | -0.1 | -0.2 | – |
| PIG-U (Phosphatidylinositol glycan anchor biosynthesis class U) | DRSC02193 | -0.2 | -0.5 | – |
| CG16787 | DRSC04282 | -0.2 | 0.1 | – |
| Fbxo42 (F-box protein 42) | DRSC04529 | -0.3 | -0.6 | – |
| cic (capicua) | DRSC14276 | 0.3 | -0.6 | – |
| cic (capicua) | DRSC15708 | 1 | -1 | – |
| cic (capicua) | DRSC16918 | 0.7 | 1.2 | – |
| cic (capicua) | DRSC21243 | -0.3 | -0.3 | – |
| VhaSFD (Vacuolar H[+]-ATPase SFD subunit) | DRSC03471 | -0.3 | -0.2 | – |
| CCT5 (Chaperonin containing TCP1 subunit 5) | DRSC07357 | 0.8 | 3.5 | – |
| TAF1B | DRSC16001 | -0.4 | -0.3 | – |
| Camta (Calmodulin-binding transcription activator) | DRSC06440 | -0.3 | 0.3 | – |
| Camta (Calmodulin-binding transcription activator) | DRSC06441 | -0.3 | -0.4 | 4.2 |
| Camta (Calmodulin-binding transcription activator) | DRSC07272 | -0.4 | -0.3 | – |
| CG7352 | DRSC16233 | -0.4 | -0.5 | – |
| Jon25Biii (Jonah 25Biii) | DRSC03115 | -0.1 | 0 | – |
| vnd (ventral nervous system defective) | DRSC17360 | -0.3 | 0.4 | – |
| vnd (ventral nervous system defective) | DRSC18849 | -0.4 | -0.1 | 0.8 |
| Paf-AHalpha (Platelet-activating factor acetylhydrolase alpha) | DRSC20267 | -0.3 | -0.7 | – |
| cathD (cathepsin D) | DRSC07588 | -0.2 | -0.6 | – |
| Mdh2 (retired record) | DRSC16361 | -0.5 | 0 | – |
| CR18275 (pseudo) | DRSC18151 | -0.4 | 0.3 | – |
| Cph (Chronophage) | DRSC17507 | -0.3 | -0.3 | – |
| Cph (Chronophage) | DRSC18434 | -0.3 | -0.9 | – |
| Ptpmeg (Protein tyrosine phosphatase Meg) | DRSC08684 | -0.2 | -0.1 | – |
| ATP8 (retired record) | DRSC21277 | -0.2 | -0.1 | – |
| CG18814 | DRSC10347 | -0.1 | -0.2 | – |
| Rsph3 (Radial spoke head protein 3) | DRSC09696 | -0.3 | -0.5 | – |
| Rsph3 (Radial spoke head protein 3) | DRSC10211 | -0.5 | -0.4 | – |
| CG17026 | DRSC10237 | -0.3 | -0.3 | – |
| Myt1 | DRSC11228 | 0.4 | -0.8 | – |
| CG5346 | DRSC15778 | 0.8 | 0.4 | – |
| karr | DRSC20681 | -0.1 | -0.3 | – |
